# Measurements from paper PMC13291606.
# B1: CDK4, endogenous, P11802 1-303 (protein)
# chain: MATSRYEPVAEIGVGAYGTVYKARDPHSGHFVALKSVRVPNGGGGGGGLPISTVREVALLRRLEAFEHPNVVRLMDVCATSRTDREIKVTLVFEHVDQDLRTYLDKAPPPGLPAETIKDLMRQFLRGLDFLHANCIVHRDLKPENILVTSGGTVKLADFGLARIYSYQMALTPVVVTLWYRAPEVLLQSTYATPVDMWSVGCIFAEMFRRKPLFCGNSEADQLGKIFDLIGLPPEDDWPRDVSLPRGAFPPRGPRPVQSVVPEMEESGAQLLLEMLTFNPHKRISAFRALQHSYLHKDEGNPE
# Biological target: Flag p21 WT, P38936
# Assay: affinity purification with mass spectrometry; Flag-tagged p21 or p27 overexpressed in HeLa wt and AMBRA1-KO; lysis in 1% NP40, 50 mM HEPES pH 7.5, 150 mM NaCl; anti-DYKDDDDK magnetic agarose, eluted with 3x DYKDDDDK peptide; LC-MS/MS (DIA)
# Conditions: remark: other sources report otherwise
binder,measurement,value
B1,binding,binds

# Results are given in words; binding and its absence hold for the method and conditions named. Binding seen in cells or lysates may run through a third protein. These calls come from enrichment with a bait or labelling near it, and not all partners need be listed.
